Reference: article PMC10799901

Protein sequences, listed by entry. Tags and fused reporters are not part of them. Lines headed by an entry give the natural chain unless they say otherwise; changes in a name come on top.
UniProt Q9WTL8: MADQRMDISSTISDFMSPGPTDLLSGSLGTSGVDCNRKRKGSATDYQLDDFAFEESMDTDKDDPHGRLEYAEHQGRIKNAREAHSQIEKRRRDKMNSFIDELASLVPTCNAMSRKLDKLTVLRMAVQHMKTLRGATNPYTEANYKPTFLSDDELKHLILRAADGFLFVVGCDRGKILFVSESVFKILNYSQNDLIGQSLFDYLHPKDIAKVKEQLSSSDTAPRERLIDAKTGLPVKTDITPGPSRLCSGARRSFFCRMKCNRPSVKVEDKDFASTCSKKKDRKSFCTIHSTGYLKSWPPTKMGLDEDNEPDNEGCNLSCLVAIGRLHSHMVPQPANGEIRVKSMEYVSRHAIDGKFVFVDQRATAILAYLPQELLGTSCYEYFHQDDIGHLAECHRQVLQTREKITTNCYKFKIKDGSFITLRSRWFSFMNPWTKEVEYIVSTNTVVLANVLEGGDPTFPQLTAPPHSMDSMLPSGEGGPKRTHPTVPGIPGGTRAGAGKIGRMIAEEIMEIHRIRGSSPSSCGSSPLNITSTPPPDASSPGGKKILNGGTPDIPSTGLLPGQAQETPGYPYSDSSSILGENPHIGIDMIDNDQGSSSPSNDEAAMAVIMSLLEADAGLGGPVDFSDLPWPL
UniProt Q61188: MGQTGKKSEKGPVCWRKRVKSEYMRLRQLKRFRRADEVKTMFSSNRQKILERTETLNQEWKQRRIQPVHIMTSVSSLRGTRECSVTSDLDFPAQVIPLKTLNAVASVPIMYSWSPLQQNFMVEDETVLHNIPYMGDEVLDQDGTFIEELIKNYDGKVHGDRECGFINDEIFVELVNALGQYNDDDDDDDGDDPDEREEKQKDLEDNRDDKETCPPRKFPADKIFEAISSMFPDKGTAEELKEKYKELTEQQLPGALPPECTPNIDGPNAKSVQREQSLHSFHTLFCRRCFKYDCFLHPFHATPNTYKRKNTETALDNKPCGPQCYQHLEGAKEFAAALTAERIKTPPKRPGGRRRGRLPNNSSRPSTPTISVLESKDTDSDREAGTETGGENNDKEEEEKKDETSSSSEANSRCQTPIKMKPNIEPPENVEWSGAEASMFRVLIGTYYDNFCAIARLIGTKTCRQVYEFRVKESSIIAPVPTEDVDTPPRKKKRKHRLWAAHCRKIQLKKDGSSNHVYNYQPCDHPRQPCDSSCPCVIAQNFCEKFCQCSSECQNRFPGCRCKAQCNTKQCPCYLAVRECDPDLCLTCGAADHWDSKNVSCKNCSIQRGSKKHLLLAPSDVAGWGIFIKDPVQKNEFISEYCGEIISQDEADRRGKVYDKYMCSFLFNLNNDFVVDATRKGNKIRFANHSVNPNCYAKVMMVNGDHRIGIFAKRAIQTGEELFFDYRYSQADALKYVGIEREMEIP
UniProt P57780: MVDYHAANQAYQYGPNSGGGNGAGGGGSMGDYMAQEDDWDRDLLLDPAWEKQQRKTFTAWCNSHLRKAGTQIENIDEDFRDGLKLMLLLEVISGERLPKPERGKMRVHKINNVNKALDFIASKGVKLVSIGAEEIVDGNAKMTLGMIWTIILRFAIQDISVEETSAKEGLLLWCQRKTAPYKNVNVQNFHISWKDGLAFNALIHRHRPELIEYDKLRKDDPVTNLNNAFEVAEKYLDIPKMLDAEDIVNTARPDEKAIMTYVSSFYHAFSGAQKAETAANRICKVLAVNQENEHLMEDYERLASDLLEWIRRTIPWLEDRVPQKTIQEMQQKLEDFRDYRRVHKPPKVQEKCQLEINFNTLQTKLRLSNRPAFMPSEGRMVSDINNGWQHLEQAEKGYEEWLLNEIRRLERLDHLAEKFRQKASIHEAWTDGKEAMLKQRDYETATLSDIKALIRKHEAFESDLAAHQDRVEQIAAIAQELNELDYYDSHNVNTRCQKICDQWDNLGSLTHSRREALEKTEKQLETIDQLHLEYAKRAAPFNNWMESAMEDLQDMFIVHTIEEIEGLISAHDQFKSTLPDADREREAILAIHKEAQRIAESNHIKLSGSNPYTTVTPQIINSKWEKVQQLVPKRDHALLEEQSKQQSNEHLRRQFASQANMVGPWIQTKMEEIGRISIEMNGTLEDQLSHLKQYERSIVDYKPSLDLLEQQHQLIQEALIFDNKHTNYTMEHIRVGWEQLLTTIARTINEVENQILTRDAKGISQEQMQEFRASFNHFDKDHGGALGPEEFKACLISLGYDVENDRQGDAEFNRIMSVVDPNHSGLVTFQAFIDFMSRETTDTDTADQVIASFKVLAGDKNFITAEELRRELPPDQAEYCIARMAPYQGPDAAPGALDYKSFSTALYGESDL

Biological target: dHLH-Bmal1, Bmal1 mutant lacking the basic helix-loop-helix DNA binding domain (UniProt Q9WTL8)
Test: co-IP; cells cross-linked with 1% formaldehyde for 10 min; nuclear extract in high salt nuclear extraction buffer (10 mM HEPES pH 8.0, 0.2 M NaCl); BMAL1 antibody or normal rabbit IgG, protein A beads; immunoblot

Substance | binding
Ezh2, endogenous (from UniProt Q61188 1-746) | no binding
Actinin 4 (Actn4), endogenous (from UniProt P57780 1-912) | binds

Results are given in words; binding and its absence hold for the method and conditions named. In cells and extracts the contact can be indirect. Binding can be weak; no strength is given.
